Measured values reported in PubChem BioAssay AID2685 (National Center for Advancing Translational Sciences (NCATS), 2010).
Out of some 320,000 compounds screened, about 2,100 (0.66%) were called active. This list was built around the results that the source calls inconclusive (neither active nor inactive); the mix of calls is not that of the screen. The call rests on the fitted dose curve; in most records, active means well fitted inhibition curve with a large enough effect in the signal ratio, with a control signal flat (not every such curve was filed as active); inconclusive means small, poorly fitted or top-dose-only effect, or effect the other way, or a change in a side signal; inactive means flat fitted curve, though single readings scatter; the % refers to the signal ratio. Where the call is inconclusive, the potency comes from a doubtful curve fit.

Test: qHTS Assay for Lipid Storage Modulators in Drosophila S3 Cells
Conditions: BODIPY lipid droplet fluorescence, 18-24 h, cells fed with added oleic acid; lipid storage change, negative = inhibition: at 46.1 µM (top of the series) unless noted
In short: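 Drosophila S3 cells loaded with oleic acid (400 uM, as added) and compounds at several concentrations; lipid droplets imaged by 488-nm laser-scanning cytometry, 500–530 nm intensity and object ratio to cell channel. Percent activity normalized to 20 uM Triacsin C.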
On the % scale 0 is the no-effect control and ±100 the full control effect; potency means the concentration at half of the fitted maximal effect.

SMILES | lipid storage change, negative = inhibition | Potency
Cn1c2ccccc2c2cc(/C=N/NC(=O)c3cc(O)cc(O)c3)ccc21 | inconclusive: -18.9% | –
COc1ccc(S(=O)(=O)N2CCCCCC2)cc1C(=O)N(C)CC(=O)Nc1c(Cl)cccc1Cl | inconclusive | –
COc1cccc(NC(=O)CSc2ccc3nnc(-c4ccncc4)n3n2)c1 | inconclusive: -25.5% | –
O=C(NCc1ccc2c(c1)OCO2)c1ccco1 | inconclusive: 14.9% | –
COc1cc(CNc2cccc3[nH]c(C(F)(F)F)nc23)cc(OC)c1 | inconclusive: 54.5% | –
CCNC(=O)NC(=O)C(C)Sc1nc2ccccc2n1CC(C)C (stereo not given) | inconclusive: 45.9% | –
COc1ccc(C2=NN(C(=O)CCC(=O)O)C(c3ccc(OC)c(OC)c3)C2)cc1 (stereo not given) | – | inconclusive: 29.1 µM [activator, single point]
CC(C)(C)n1nc2c(c1NC(=O)COc1ccc(Cl)cc1)CSC2 | inconclusive: 11.8% | –
O=C(Nc1nnc(S(=O)(=O)N2CCN(c3ccc(F)cc3)CC2)s1)c1ccco1 | – | inconclusive: 5.8 µM [activator, full curve]
CN(CC(=O)N1CC=C(c2ccccc2)CC1)S(=O)(=O)c1cnc[nH]1 | inconclusive: -7.11% | –
Cc1cc2c(c(=O)o1)C1O[C@](c3ccsc3)(Cc3ccccc31)O2 | inconclusive: 17.9% [at 9.22 µM] | –
Cc1cc(C)c2[nH]c(=O)c(C(c3nnnn3C3CCCC3)N3CCOCC3)cc2c1 (stereo not given) | inconclusive: -2.46% | –
Cc1ccc(NC(=S)N(CCN2CCOCC2)Cc2cc3cc4c(cc3[nH]c2=O)OCO4)cc1 | inconclusive: 9.21% | –
COc1cc(/C=N/n2c(-c3cc(C)[nH]n3)n[nH]c2=S)ccc1O | inactive: -10.3% | –
COc1ccc(N(CC(=O)Nc2ccccc2C(=O)O)S(=O)(=O)c2ccc(C)c([N+](=O)[O-])c2)cc1 | inconclusive: 110% | –
O=C(NNC(=O)c1ccc(F)c(S(=O)(=O)N2CCOCC2)c1)c1ccc(Br)cc1 | – | inconclusive: 13 µM [activator, partial curve]
CC1CC(C)CN(CCCNS(=O)(=O)c2cc(Br)cc3c2N(C(=O)C2CC2)CC3)C1 (stereo not given) | – | inconclusive: 0.461 µM [falling, partial curve, poor fit]
COc1ccc(/C=C/C(=O)N2c3ccccc3Sc3ccc(C(F)(F)F)cc32)cc1 | inconclusive: 25.5% | –
COc1cccc(CN2CCNC(=O)C2CC(=O)NCCN2CCOCC2)c1OC (stereo not given) | – | inconclusive: 10.3 µM [activator, partial curve, poor fit]
O=C(Nc1ccc(Cl)c(Cl)c1)Nc1nnc(CC2=CCCCC2)s1 | inconclusive: -21.6% | –
O=C(Cn1c(=O)c2c3c(sc2n(Cc2ccccc2)c1=O)CCCC3)NCCO | – | inconclusive: 8.2 µM [falling, partial curve, poor fit]
Cc1ccc(O)c(NC(=O)c2cc(-c3ccco3)on2)c1 | – | inconclusive: 9.2 µM [activator, single point]
COC(=O)C(C)n1cnc2c(nnn2-c2ccc(C)cc2)c1=O (stereo not given) | inconclusive: 24.3% | –
CCN(CC)CCCNC(=O)c1sc2nc(-c3ccc(F)cc3)cn2c1C | inconclusive: -31.2% | –
CNc1ccc(Cl)cc1C(N)=O | inconclusive: 4.57% | –

Looked up by compound from the entries so far:
SMILES | lipid storage change, negative = inhibition | Potency
O=C(Cn1c(=O)c2c3c(sc2n(Cc2ccccc2)c1=O)CCCC3)NCCO | – | inconclusive: 8.2 µM [falling, partial curve, poor fit]
CC(C)(C)n1nc2c(c1NC(=O)COc1ccc(Cl)cc1)CSC2 | inconclusive: 11.8% | –
CC1CC(C)CN(CCCNS(=O)(=O)c2cc(Br)cc3c2N(C(=O)C2CC2)CC3)C1 (stereo not given) | – | inconclusive: 0.461 µM [falling, partial curve, poor fit]

Remaining list, next part

SMILES | lipid storage change, negative = inhibition | Potency
CCCOc1ccc(/C=C/C(=O)N2CCN(c3ccccn3)CC2)cc1 | inactive: 19.3% | –
Cc1cccc(NC(=O)CSCC(=O)Nc2ccccc2C(=O)NC2CC2)c1 | inconclusive | –
Cc1oc2cc3oc(=O)c(CCC(=O)NCCCN4CCCC4=O)c(C)c3cc2c1C | inconclusive: -4.26% | –
COc1cccc(CC(=O)NN2C(=O)NC3(CCCCC3)C2=O)c1 | inconclusive: 6.6% | –
O=C(N1CCCCC1)C1(S(=O)(=O)c2ccccc2)CC=CC1 | inconclusive: 25.1% | –
COc1ccc(CCNCC(=O)Nc2ccc(C)c(Br)c2)cc1OC | – | inconclusive: 29.1 µM [activator, single point]
Cc1ccc(C(=O)N(CC(=O)Nc2sc(C)c(C)c2C(N)=O)C2CCCC2)cc1 | inconclusive: -72.8% | –
CN(CCOc1ccccc1)CC(=O)Nc1ccc(Cl)cc1[N+](=O)[O-] | inconclusive: 32.4% | –
Cc1cc(C)n(CCNC(=O)CCc2nnc(CCc3ccccc3)o2)n1 | inconclusive: 24.2% | –
Cc1cc(Cl)ccc1NC(=S)NCc1ccccc1Cl | inconclusive: -21.2% | –
CC(C)n1cnc2c(N(C)c3cccc(Cl)c3)nc(N(CCO)CCO)nc21 | inconclusive: 16% | –
COc1cc(/C=N/N2CCOCC2)ccc1OCc1ccccc1 | inconclusive: 23.9% | –
COc1ccccc1C(CNC(=O)C1CCN(C(=O)Nc2ccccc2)CC1)N1CCCC1 (stereo not given) | – | inconclusive: 29.1 µM [activator, single point]
Cc1cccc(OCC(=O)NCC(=O)N/N=C/c2cc(Br)ccc2OCc2ccccc2)c1 | – | inconclusive: 0.651 µM [activator, full curve]
COc1ccc([C@]23Cc4cc(C#N)ccc4C(O2)c2c(cc(-c4ccccc4)oc2=O)O3)cc1 | inconclusive: 13.3% [at 9.22 µM] | –
CCC(=O)Nc1cccc(NC(=O)CSc2nnc(C3CC3)n2C)c1 | inconclusive: 10.6% | –
N=C1CCCN1c1ccccc1O | inconclusive: -46% | –
N/C(Cc1ccc([N+](=O)[O-])cc1)=N\OC(=O)Cc1ccccc1 | inconclusive: 22.1% | –
COc1ccc(/C(N)=N/OC(=O)Oc2ccccc2)cc1OC | – | inconclusive: 0.164 µM [falling, full curve, poor fit]
Cn1nc(C(C)(C)C)cc1NC(=O)Nc1cc(Cl)cc(Cl)c1 | inconclusive: -28.7% | –
COc1ccc(S(=O)(=O)N(CC(=O)Nc2ccc(S(=O)(=O)N3CCOCC3)cc2)c2ccccc2)cc1 | inconclusive: -28.3% | –
Cc1sc(/N=C/c2ccccc2O)c(C#N)c1C | inconclusive: -141% | –
O=C(Oc1ccc2c(c1)O/C(=C\c1ccncc1)C2=O)c1ccccc1 | – | inconclusive: 8.2 µM [falling, partial curve]
CC(C)=NOCC(=O)Nn1c(COc2ccccc2)nc2ccccc2c1=O | inconclusive: 105% | –
Cc1cnc(C(=O)OCC(=O)NCc2cccc(Cl)c2)cn1 | – | inconclusive: 6.51 µM [falling, single point]

SMILES | lipid storage change, negative = inhibition | Potency
COc1ccc(CN2CCN(C)CC2)cc1OCc1ccccc1 | – | active: 18.4 µM
CCCOc1ccc2c3c(c(=O)oc2c1OCCC)CCC3 | – | inconclusive: 4.61 µM [activator, full curve, poor fit]
COC(=O)CCC(=O)OC1(C)C(=O)C2=CN(C3CCCC3)C(c3ccc(OC)cc3)=CC2=C(Br)C1=O (stereo not given) | – | inconclusive: 16.4 µM [cytotoxic, single point]
C/C(=N\Nc1cc(C)nc(-c2ccccc2)n1)c1cccc([N+](=O)[O-])c1 | inconclusive: 2.54% | –
CC(C)Nc1nc(NC(N)=S)nc(NC(C)C)n1 | inconclusive: 10.6% | –
COc1ccc(S(=O)(=O)Oc2cc(C(=S)N3CCOCC3)ccc2OC)cc1 | inconclusive: -6.77% | –
O=C(COc1ccc2c3c(c(=O)oc2c1)CCCC3)N1CCN(c2ccc(F)cc2)CC1 | – | inconclusive: 29.1 µM [falling, single point]
COC(=O)c1ccccc1NC(=O)CSc1n[nH]c(CC(C)C)n1 | – | inconclusive: 20.6 µM [activator, single point]
O=C(O)C(Oc1ccc2c(-c3ccccc3)cc(=O)oc2c1)c1ccccc1 (stereo not given) | inconclusive: 6.32% | –
CCOc1ccc(C(C#N)N2CCOCC2)cc1OC (stereo not given) | inconclusive: -98.9% | –
Cc1cc(C)c(S(=O)(=O)Cc2ccccc2)c(Cl)n1 | inconclusive: -5.69% | –
COc1ccccc1/C=N/NC(=O)c1ccc(CN2C(=O)c3cccc4cccc2c34)cc1 | – | inconclusive: 0.206 µM [activator, full curve, poor fit]
O=C(NCCCN1CCOCC1)c1ccc(/C=C2\Oc3ccccc3N(Cc3ccccc3F)C2=O)cc1 | – | inconclusive: 4.61 µM [activator, partial curve]
CCCCNC(=O)NS(=O)(=O)c1ccc(NC(=O)CCC(=O)c2cccs2)cc1 | inconclusive: 16.1% | –
CCCN(Cc1ccc(N(CC)CC)cc1)CC1CC1 | inconclusive: 13.5% | –
CCN(CC)/C(=N/O)NC(=O)NS(=O)(=O)c1ccc(C)cc1 | – | inconclusive: 0.0291 µM [falling, full curve, poor fit]
CCCN(C(=O)c1ccc2c(SCC(=O)O)c3c(nc2c1)CCC3)c1cccc(C)c1 | – | inconclusive: 6.51 µM [falling, single point]
O=C(NC1CCCCC1)C(c1ccncc1)N(C(=O)c1csnn1)c1ccccc1 (stereo not given) | inconclusive: -24.1% | –
Cc1cccc(C)c1NC(=O)CN(C)C(=O)[C@H](C)NC(=O)c1ccco1 | inconclusive: 11.6% | –
CCOC(=O)c1[nH]c2ccc(F)cc2c1NC(=O)C1=COCCO1 | inconclusive: 98.2% | –
Cc1ccc(NC(=O)NCC(c2ccccc2)N(C)C)cc1 (stereo not given) | inconclusive: 15.1% | –
CCC(=O)N1CCN(c2ccccc2NC(=O)COc2cccc(C)c2C)CC1 | – | inconclusive: 29.1 µM [falling, single point]
O=C(c1ccco1)N1CCN(C(=O)c2nn3cccnc3c2Cl)CC1 | inconclusive: 8.16% | –
Cc1cccc(C)c1Nc1nnc(SC/C(O)=C(\C#N)c2nc3ccccc3[nH]2)s1 | inconclusive: 17.3% | –
CCO[C@@H]1OC(C(=O)O)=C[C@H](c2csc3ccccc23)[C@H]1CCCO | inconclusive: 7.07% | –
